doi:10.1101/2020.03.28.013060

Biological target: T1, EGFP-tagged full length wild type NHR-25 (C. elegans) (UniProt Q19345)
T1 sequence: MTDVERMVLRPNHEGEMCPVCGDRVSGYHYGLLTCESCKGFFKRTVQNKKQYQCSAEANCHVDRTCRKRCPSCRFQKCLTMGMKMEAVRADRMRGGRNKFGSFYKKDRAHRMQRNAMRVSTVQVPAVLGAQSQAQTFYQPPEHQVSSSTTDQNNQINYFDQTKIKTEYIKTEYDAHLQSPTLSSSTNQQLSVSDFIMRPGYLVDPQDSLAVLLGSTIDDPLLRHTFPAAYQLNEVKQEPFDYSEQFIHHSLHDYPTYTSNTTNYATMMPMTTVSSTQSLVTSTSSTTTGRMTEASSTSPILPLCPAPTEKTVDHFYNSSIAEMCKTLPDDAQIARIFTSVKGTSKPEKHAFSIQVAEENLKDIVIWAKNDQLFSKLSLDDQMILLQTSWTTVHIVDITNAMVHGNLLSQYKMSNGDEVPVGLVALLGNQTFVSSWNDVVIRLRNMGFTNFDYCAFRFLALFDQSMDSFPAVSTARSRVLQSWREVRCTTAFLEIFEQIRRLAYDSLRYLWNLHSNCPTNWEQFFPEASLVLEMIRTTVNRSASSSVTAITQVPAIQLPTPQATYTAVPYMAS
Experiment: co-IP

FLAG-tagged wild-type LIR-2 (C. elegans)
binding: binds

No constants are given. Whether binding was seen depends on the method and setting. Binding seen in cells or lysates may run through a third protein. Binding can be weak; no strength is given. Sequences can lack the tags named with a protein.
